Laboratory results: PMC9124971
These are yes or no findings as the source states them, for the method shown. In cells and extracts the contact can be indirect. Some entries that bind do so weakly or less than the wild type. Blank lines part the entries; values can stand above or below the molecule they belong to.

Protein sequences, listed by entry. Tags and fused reporters are not part of them.
UniProt P48432: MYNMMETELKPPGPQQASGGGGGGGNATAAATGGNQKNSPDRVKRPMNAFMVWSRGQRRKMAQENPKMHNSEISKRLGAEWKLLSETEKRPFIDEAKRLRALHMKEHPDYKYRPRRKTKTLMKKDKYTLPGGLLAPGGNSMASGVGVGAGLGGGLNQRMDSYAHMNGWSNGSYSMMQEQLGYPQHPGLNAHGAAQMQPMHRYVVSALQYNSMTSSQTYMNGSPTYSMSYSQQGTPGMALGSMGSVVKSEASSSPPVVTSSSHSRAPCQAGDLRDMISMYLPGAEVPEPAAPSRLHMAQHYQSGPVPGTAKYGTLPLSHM
UniProt Q14839: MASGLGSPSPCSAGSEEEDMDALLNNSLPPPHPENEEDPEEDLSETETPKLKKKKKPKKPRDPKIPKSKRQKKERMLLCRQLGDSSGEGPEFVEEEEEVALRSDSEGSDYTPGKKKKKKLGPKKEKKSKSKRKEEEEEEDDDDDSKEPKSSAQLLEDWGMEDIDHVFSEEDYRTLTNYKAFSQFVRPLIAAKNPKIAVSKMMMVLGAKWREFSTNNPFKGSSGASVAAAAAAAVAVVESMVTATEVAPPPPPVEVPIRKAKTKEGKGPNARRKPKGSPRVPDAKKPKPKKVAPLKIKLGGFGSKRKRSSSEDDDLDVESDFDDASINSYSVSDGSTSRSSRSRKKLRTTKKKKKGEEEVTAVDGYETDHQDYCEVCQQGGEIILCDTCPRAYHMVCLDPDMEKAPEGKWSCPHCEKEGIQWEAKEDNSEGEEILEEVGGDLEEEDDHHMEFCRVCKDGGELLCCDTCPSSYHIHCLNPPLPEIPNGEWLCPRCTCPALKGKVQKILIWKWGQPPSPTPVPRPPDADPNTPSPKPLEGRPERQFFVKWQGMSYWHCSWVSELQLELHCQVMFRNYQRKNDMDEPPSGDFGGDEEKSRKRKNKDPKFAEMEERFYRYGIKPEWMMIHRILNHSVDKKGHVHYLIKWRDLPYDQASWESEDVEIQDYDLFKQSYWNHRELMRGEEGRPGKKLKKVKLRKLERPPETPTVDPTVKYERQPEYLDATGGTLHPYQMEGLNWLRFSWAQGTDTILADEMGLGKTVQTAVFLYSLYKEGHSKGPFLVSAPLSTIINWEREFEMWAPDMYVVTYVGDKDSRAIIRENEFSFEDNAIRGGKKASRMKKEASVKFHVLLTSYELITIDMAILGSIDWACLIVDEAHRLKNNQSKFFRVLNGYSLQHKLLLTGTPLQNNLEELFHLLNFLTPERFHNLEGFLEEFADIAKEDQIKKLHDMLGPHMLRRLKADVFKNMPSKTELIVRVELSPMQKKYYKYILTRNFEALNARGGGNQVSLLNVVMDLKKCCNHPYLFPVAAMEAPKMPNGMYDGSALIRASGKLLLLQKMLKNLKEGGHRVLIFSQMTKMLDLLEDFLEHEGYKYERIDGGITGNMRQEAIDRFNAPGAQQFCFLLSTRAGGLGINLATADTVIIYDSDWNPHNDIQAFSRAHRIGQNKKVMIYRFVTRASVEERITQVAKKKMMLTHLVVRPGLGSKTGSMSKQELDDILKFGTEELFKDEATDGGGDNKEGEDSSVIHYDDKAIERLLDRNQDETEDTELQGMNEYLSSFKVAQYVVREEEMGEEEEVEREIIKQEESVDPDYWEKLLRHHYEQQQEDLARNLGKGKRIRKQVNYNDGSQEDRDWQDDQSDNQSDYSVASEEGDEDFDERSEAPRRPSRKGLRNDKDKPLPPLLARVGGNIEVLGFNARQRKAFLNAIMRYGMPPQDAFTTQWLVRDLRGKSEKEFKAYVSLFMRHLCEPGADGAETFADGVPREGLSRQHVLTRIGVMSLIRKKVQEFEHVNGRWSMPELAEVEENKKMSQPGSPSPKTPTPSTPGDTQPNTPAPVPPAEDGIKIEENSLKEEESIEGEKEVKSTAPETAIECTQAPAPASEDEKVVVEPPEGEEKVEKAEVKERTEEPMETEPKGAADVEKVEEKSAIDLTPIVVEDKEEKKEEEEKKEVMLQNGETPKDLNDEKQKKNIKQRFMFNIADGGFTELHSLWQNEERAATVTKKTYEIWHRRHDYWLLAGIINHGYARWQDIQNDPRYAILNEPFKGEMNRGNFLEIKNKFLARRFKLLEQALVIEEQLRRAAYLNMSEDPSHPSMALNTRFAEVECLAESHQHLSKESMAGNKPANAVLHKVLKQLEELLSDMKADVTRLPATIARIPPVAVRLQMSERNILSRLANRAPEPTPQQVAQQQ

What was measured:
myc-tagged SOX2 = myc-tagged SOX2 (UniProt P48432); assay: co-IP; HEK cells co-transfected with tagged constructs, harvested 24 h later; total cell extract in 20 mM Tris pH8, 137 mM NaCl, 10 mM EDTA, 1% NP40, 10% glycerol; antibodies against myc or FLAG 2 h at 4°C, protein G beads; Western blot
[1] = target: full length CUX1 with an N-terminal myc-tag and a C-terminal HA-tag (UniProt P39880); assay: co-IP; HEK cells transfected with myc-CUX1-HA alone or together with FLAG-SOX2; extracts precipitated with one of two CUX1 antibodies (C-terminus peptide or aa521-621); blot with FLAG antibody
[2] = target: FLAG-tagged SOX2 (full length SOX2, F-SOX2-WT) (UniProt P48432); assay: co-IP; HEK cells co-transfected with tagged constructs, harvested 24 h later; total cell extract in 20 mM Tris pH8, 137 mM NaCl, 10 mM EDTA, 1% NP40, 10% glycerol; antibodies against myc or FLAG 2 h at 4°C, protein G beads; Western blot

Molecule: FLAG-tagged CHD4 (from UniProt Q14839 1-1912)
binding (myc-tagged SOX2): binds

Molecule: FLAG-tagged SOX2 (full length SOX2, F-SOX2-WT) (from UniProt P48432 1-319)
binding [1]: binds

The remaining lines, values ahead:

binding [2]: binds
B1: CUX1 879-1336 (domain or fragment, UniProt P39880 879-1336)
chain: WKEWPSAESPYSQSSELSLTGASRSETPQNSPLPSSPIVPMSKPTKPSVPPLTPEQYEVYMYQEVDTIELTRQVKEKLAKNGICQRIFGEKVLGLSQGSVSDMLSRPKPWSKLTQKGREPFIRMQLWLNGELGQGVLPVQGQQQGPVLHSVTSLQDPLQQGCVSSESTPKTSASCSPAPESPMSSSESVKSLTELVQQPCPPIEASKDSKPPEPSDPPASDSQPTTPLPLSGHSALSIQELVAMSPELDTYGITKRVKEVLTDNNLGQRLFGETILGLTQGSVSDLLARPKPWHKLSLKGREPFVRMQLWLNDPNNVEKLMDMKRMEKKAYMKRRHSSVSDSQPCEPPSVGTEYSQGASPQPQHQLKKPRVVLAPEEKEALKRAYQQKPYPSPKTIEDLATQLNLKTSTVINWFHNYRSRIRRELFIEEIQAGSQGQAGASDSPSARSGRAAPSSEGD

binding [2]: binds
B2: CUX1 659-1505 (domain or fragment, UniProt P39880 659-1505)
chain: RIRASETGSDEAIKSILEQAKRELQVQKTAEPAQPSSASGSGNSDDAIRSILQQARREMEAQQAALDPALKQAPLSQSDITILTPKLLSTSPMPTVSSYPPLAISLKKPSAAPEAGASALPNPPALKKEAQDAPGLDPQGAADCAQGVLRQVKNEVGRSGAWKDHWWSAVQPERRNAASSEEAKAEETGGGKEKGSGGSGGGSQPRAERSQLQGPSSSEYWKEWPSAESPYSQSSELSLTGASRSETPQNSPLPSSPIVPMSKPTKPSVPPLTPEQYEVYMYQEVDTIELTRQVKEKLAKNGICQRIFGEKVLGLSQGSVSDMLSRPKPWSKLTQKGREPFIRMQLWLNGELGQGVLPVQGQQQGPVLHSVTSLQDPLQQGCVSSESTPKTSASCSPAPESPMSSSESVKSLTELVQQPCPPIEASKDSKPPEPSDPPASDSQPTTPLPLSGHSALSIQELVAMSPELDTYGITKRVKEVLTDNNLGQRLFGETILGLTQGSVSDLLARPKPWHKLSLKGREPFVRMQLWLNDPNNVEKLMDMKRMEKKAYMKRRHSSVSDSQPCEPPSVGTEYSQGASPQPQHQLKKPRVVLAPEEKEALKRAYQQKPYPSPKTIEDLATQLNLKTSTVINWFHNYRSRIRRELFIEEIQAGSQGQAGASDSPSARSGRAAPSSEGDSCDGVEATEGPGSADTEEPKSQGEAEREEVPRPAEQTEPPPSGTPGPDDARDDDHEGGPVEGPGPLPSPASATATAAPAAPEDAATSAAAAPGEGPAAPSSAPPPSNSSSSSAPRRPSSLQSLFGLPEAAGARDSRDNPLRKKKAANLNSIIHRLEKAASREEPIEWEF
